Data source: PubChem BioAssay AID1259314 (Drosophila RNAi Screening Center, 2017)

- Assay: 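Modifiers of manganese chloride toxicity in fly cells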 (primary screen)
- System: Drosophila S2R+ cells
- Reagent: long dsRNA against Drosophila genes
- Timing: 5 days (4 days knock-down, then 1 day metal exposure)
- Treatment: manganese chloride added to 15 mM for 24 hours
- Measured: 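Luciferase ATP signal used as a proxy for viable cell number, reported as one averaged z-score per dsRNA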
- Reading the numbers: mean ATP z-score: higher = more ATP than the plate average, more viable cells under manganese
- Rule for the call: 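a mean ATP z-score past 1.5 in either direction is called active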
- Meaning of the calls: active = strong ATP change, up or down; inactive = no strong ATP change
This is a random part of about 3,100 deposited reagents. Over the whole deposit, 289 (9.3%) got an active call. 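Active includes both higher and lower ATP than plate average; check the z-score sign for direction.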 Unmarked entries are inactive. Reagents against one gene are numbered here. Not stated in the record: the amount of reagent.

no.	Gene	dsRNA no.	mean ATP z-score
1	pes (peste)	1	-0.688
2	pes (peste)	2	-1.88 (active)
3	CG4459	1	-0.0518
4	TkR86C (Tachykinin-like receptor at 86C)	1	0.61
5	CG43155	1	-0.24
6	Ir60b (Ionotropic receptor 60b)	1	0.299
7	CG14511	1	0.441
8	CG14511	2	-1.27
9	Lrch (Leucine-rich-repeats and calponin homology domain protein)	1	0.219
10	Lrch (Leucine-rich-repeats and calponin homology domain protein)	2	1.11
11	Tmx3 (Thioredoxin-related transmembrane protein 3)	1	-0.054
12	Tmx3 (Thioredoxin-related transmembrane protein 3)	2	-0.964
13	Abcd3 (ATP binding cassette subfamily D member 3)	1	0.196
14	Abcd3 (ATP binding cassette subfamily D member 3)	2	0.035
15	CG33253	1	0.862
16	CG33253	2	0.683

Records listed so far whose target name starts with L or l (2):
Gene	dsRNA no.	mean ATP z-score
Lrch (Leucine-rich-repeats and calponin homology domain protein)	1	0.219
Lrch (Leucine-rich-repeats and calponin homology domain protein)	2	1.11

The results go on:
no.	Gene	dsRNA no.	mean ATP z-score
17	Hmt-1 (Heavy metal tolerance factor 1)	1	0.53
18	Hmt-1 (Heavy metal tolerance factor 1)	2	-0.543
19	CG11655	1	-1.15
20	CG33124	1	-0.385
21	Ptp10D (Protein tyrosine phosphatase 10D)	1	-0.44
22	Ptp10D (Protein tyrosine phosphatase 10D)	2	-0.226
23	Ptp10D (Protein tyrosine phosphatase 10D)	3	0.29
24	bumpel	1	0.299
25	Vha100-4 (Vacuolar H[+] ATPase 100kD subunit 4)	1	0.183
26	Vha100-4 (Vacuolar H[+] ATPase 100kD subunit 4)	2	1
27	out (outsiders)	1	-0.467
28	out (outsiders)	2	0.707
29	CG11703	1	-0.844
30	CG11703	2	-0.424
31	CG6006	1	0.928
32	CG6006	2	-0.114
33	CG11367	1	-1.33
34	CG14621	1	0.395
35	CG14621	2	0.714
36	CG4073	1	0.923
37	ETHR	1	0.0908
38	ETHR	2	-0.171
39	CG6574	1	0.0836
40	CG6574	2	-0.234
41	path (pathetic)	1	-1.84 (active)
42	path (pathetic)	2	0.582
43	Gr63a (Gustatory receptor 63a)	1	-1.18
44	oys (oysgedart)	1	-1.82 (active)
45	oys (oysgedart)	2	-0.988
46	oys (oysgedart)	3	-0.0695
